No constants are given. Whether binding was seen depends on the method and setting. In cells and extracts the contact can be indirect. Some entries that bind do so weakly or less than the wild type.

Amino acid sequences for entries named in this document (tags omitted).
UniProt Q16875: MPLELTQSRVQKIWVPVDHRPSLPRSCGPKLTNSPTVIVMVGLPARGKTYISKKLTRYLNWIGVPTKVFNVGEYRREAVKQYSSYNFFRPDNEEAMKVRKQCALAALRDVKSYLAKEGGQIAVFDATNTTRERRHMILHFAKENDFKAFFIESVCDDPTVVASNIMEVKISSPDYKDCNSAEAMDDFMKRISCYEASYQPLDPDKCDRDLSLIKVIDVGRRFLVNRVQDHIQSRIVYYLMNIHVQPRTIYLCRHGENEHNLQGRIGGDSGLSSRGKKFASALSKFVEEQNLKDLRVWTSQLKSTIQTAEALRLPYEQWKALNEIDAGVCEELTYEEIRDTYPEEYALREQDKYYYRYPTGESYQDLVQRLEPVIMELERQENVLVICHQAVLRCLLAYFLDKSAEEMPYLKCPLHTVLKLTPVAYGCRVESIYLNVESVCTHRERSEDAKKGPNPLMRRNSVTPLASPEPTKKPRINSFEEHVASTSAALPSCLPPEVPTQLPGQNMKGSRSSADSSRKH

For test [1], the target named is 6-phosphofructo-2-kinase/fructose-2,6-biphosphatase 3 (PFKFB3) (human (endogenous in RPMI8226)) (UniProt Q16875). Nature of the test: co-IP; endogenous proteins, RPMI8226 whole-cell extracts in RIPA buffer, beads conjugated with specific antibody, 2 h at 4°C, Western blot. Background: A western blot detects proteins with antibodies after separation by electrophoresis.

Another test addresses PFKFB3 in HEK293T cells (UniProt Q16875). Nature of the test: co-IP; HEK293T whole-cell extracts in RIPA buffer, beads conjugated with specific antibody, 2 h at 4°C, Western blot.

B1: lysine demethylase KDM2A (protein, UniProt Q9Y2K7 1-1162)
chain: MEPEEERIRYSQRLRGTMRRRYEDDGISDDEIEGKRTFDLEEKLHTNKYNANFVTFMEGKDFNVEYIQRGGLRDPLIFKNSDGLGIKMPDPDFTVNDVKMCVGSRRMVDVMDVNTQKGIEMTMAQWTRYYETPEEEREKLYNVISLEFSHTRLENMVQRPSTVDFIDWVDNMWPRHLKESQTESTNAILEMQYPKVQKYCLMSVRGCYTDFHVDFGGTSVWYHIHQGGKVFWLIPPTAHNLELYENWLLSGKQGDIFLGDRVSDCQRIELKQGYTFVIPSGWIHAVYTPTDTLVFGGNFLHSFNIPMQLKIYNIEDRTRVPNKFRYPFYYEMCWYVLERYVYCITNRSHLTKEFQKESLSMDLELNGLESGNGDEEAVDREPRRLSSRRSVLTSPVANGVNLDYDGLGKTCRSLPSLKKTLAGDSSSDCSRGSHNGQVWDPQCAPRKDRQVHLTHFELEGLRCLVDKLESLPLHKKCVPTGIEDEDALIADVKILLEELANSDPKLALTGVPIVQWPKRDKLKFPTRPKVRVPTIPITKPHTMKPAPRLTPVRPAAASPIVSGARRRRVRCRKCKACVQGECGVCHYCRDMKKFGGPGRMKQSCVLRQCLAPRLPHSVTCSLCGEVDQNEETQDFEKKLMECCICNEIVHPGCLQMDGEGLLNEELPNCWECPKCYQEDSSEKAQKRKMEESDEEAVQAKVLRPLRSCDEPLTPPPHSPTSMLQLIHDPVSPRGMVTRSSPGAGPSDHHSASRDERFKRRQLLRLQATERTMVREKENNPSGKKELSEVEKAKIRGSYLTVTLQRPTKELHGTSIVPKLQAITASSANLRHSPRVLVQHCPARTPQRGDEEGLGGEEEEEEEEEEEDDSAEEGGAARLNGRGSWAQDGDESWMQREVWMSVFRYLSRRELCECMRVCKTWYKWCCDKRLWTKIDLSRCKAIVPQALSGIIKRQPVSLDLSWTNISKKQLTWLVNRLPGLKDLLLAGCSWSAVSALSTSSCPLLRTLDLRWAVGIKDPQIRDLLTPPADKPGQDNRSKLRNMTDFRLAGLDITDATLRLIIRHMPLLSRLDLSHCSHLTDQSSNLLTAVGSSTRYSLTELNMAGCNKLTDQTLIYLRRIANVTLIDLRGCKQITRKACEHFISDLSINSLYCLSDEKLIQKIS
With B1, the binding entry in test [1] was “binds”.

B2: KDM2A in HEK293T cells (protein, UniProt Q9Y2K7 1-1162)
chain: MEPEEERIRYSQRLRGTMRRRYEDDGISDDEIEGKRTFDLEEKLHTNKYNANFVTFMEGKDFNVEYIQRGGLRDPLIFKNSDGLGIKMPDPDFTVNDVKMCVGSRRMVDVMDVNTQKGIEMTMAQWTRYYETPEEEREKLYNVISLEFSHTRLENMVQRPSTVDFIDWVDNMWPRHLKESQTESTNAILEMQYPKVQKYCLMSVRGCYTDFHVDFGGTSVWYHIHQGGKVFWLIPPTAHNLELYENWLLSGKQGDIFLGDRVSDCQRIELKQGYTFVIPSGWIHAVYTPTDTLVFGGNFLHSFNIPMQLKIYNIEDRTRVPNKFRYPFYYEMCWYVLERYVYCITNRSHLTKEFQKESLSMDLELNGLESGNGDEEAVDREPRRLSSRRSVLTSPVANGVNLDYDGLGKTCRSLPSLKKTLAGDSSSDCSRGSHNGQVWDPQCAPRKDRQVHLTHFELEGLRCLVDKLESLPLHKKCVPTGIEDEDALIADVKILLEELANSDPKLALTGVPIVQWPKRDKLKFPTRPKVRVPTIPITKPHTMKPAPRLTPVRPAAASPIVSGARRRRVRCRKCKACVQGECGVCHYCRDMKKFGGPGRMKQSCVLRQCLAPRLPHSVTCSLCGEVDQNEETQDFEKKLMECCICNEIVHPGCLQMDGEGLLNEELPNCWECPKCYQEDSSEKAQKRKMEESDEEAVQAKVLRPLRSCDEPLTPPPHSPTSMLQLIHDPVSPRGMVTRSSPGAGPSDHHSASRDERFKRRQLLRLQATERTMVREKENNPSGKKELSEVEKAKIRGSYLTVTLQRPTKELHGTSIVPKLQAITASSANLRHSPRVLVQHCPARTPQRGDEEGLGGEEEEEEEEEEEDDSAEEGGAARLNGRGSWAQDGDESWMQREVWMSVFRYLSRRELCECMRVCKTWYKWCCDKRLWTKIDLSRCKAIVPQALSGIIKRQPVSLDLSWTNISKKQLTWLVNRLPGLKDLLLAGCSWSAVSALSTSSCPLLRTLDLRWAVGIKDPQIRDLLTPPADKPGQDNRSKLRNMTDFRLAGLDITDATLRLIIRHMPLLSRLDLSHCSHLTDQSSNLLTAVGSSTRYSLTELNMAGCNKLTDQTLIYLRRIANVTLIDLRGCKQITRKACEHFISDLSINSLYCLSDEKLIQKIS
As for B2, in the test with PFKFB3 in HEK293T cells, the binding entry is on record as “binds”.

The values above are taken from PMC8165180.
